Measured values taken from patent US20220143021A1 (Cardiff Oncology, Inc., priority 2019, published 2022).
Some of these results come from one statement about several compounds together.

Test system: human prostate tissues
Test: organ bath, EFS-induced (neurogenic) contractions of human prostate strips
Details: α1-blockers alone
Description: Patients who underwent previous transurethral resection of the prostate (TURP) were excluded. […] Informed consent was obtained from all patients. According to the ethical approval, samples and data were collected and analyzed anonymously, so that no data on patients' characteristics were stored. Samples were taken immediately after prostatectomy, following macroscopical examination by an uro-pathologist. […] For macroscopic examination and sampling, the prostate was opened by a single longitudinal cut from the capsule to the urethra. Subsequently, both intersections were checked macroscopically for any obvious tumor infiltration. […]
In each single experiment, two from four strips obtained from the same prostate were allocated to the control group (without inhibitor or antagonist), and two others to the inhibitor/antagonist group (resulting in duplicate determination for each group in each single experiment). […] Only one curve was recorded with each sample, i. e. for one agonist, or for electric field stimulation (EFS). […]
Data analyses and calculations were based on maximum peak heights of contractions. For calculation of agonist- or EFS-induced contractions, tensions were expressed as % of KCl-induced contractions, as this may correct different stromal/epithelial ratios, different smooth muscle content, varying degree of BPH, or any other heterogeneity between prostate samples and patients.

Structure (SMILES) | inhibition of EFS-induced (neurogenic) contractions, summary statement
C[C@H](Cc1cc2c(c(C(N)=O)c1)N(CCCO)CC2)NCCOc1ccccc1OCC(F)(F)F [silodosin, 1-(3-hydroxypropyl)-5-[(2 R)-2-[2-[2-(2,2,2-trifluoroethoxy)phenoxy]ethylamino]propyl]-2,3-dihydroindole-7-carboxamide] | less than 50%
CCOc1ccccc1OCCN[C@H](C)Cc1ccc(OC)c(S(N)(=O)=O)c1 [tamsulosin, 5-[(2 R)-2-[2-(2-ethoxyphenoxy)ethylamino]propyl]-2-methoxybenzenesulfonamide] | less than 50%
